PubChem BioAssay AID1259254 – NCATS | 2017

Aim: 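Finding genes that stop cells copying their DNA twice in one cycle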 (primary screen)
System: human HCT116 colorectal cancer cells
Knock-down reagent: single siRNA against human genes
Time to read-out: 3 days
Read-out: 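Imaged Hoechst DNA stain sorts each cell into a cycle phase by DNA amount; per plate, G2 fraction set to 0% for non-targeting and 100% for GMNN siRNA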
Direction: G2 robust z-score: higher = more G2 cells, more excess DNA replication
Active means: 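Active siRNAs have a G2 robust z of 5 or more median absolute deviations over the median, which in these data means about 38% or higher of GMNN control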
Shown is an unselected part of about 59,000 reagents. In the full data, about 1,550 (2.6%) were called active. 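G2 share is only a proxy for re-replication; each gene was hit by three separate siRNAs, and active genes were retested.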 Not all columns of the deposit are shown. Reagent sequences are not shown. The record does not give: the amount of reagent.

| gene knocked down | PubChem SID | G2 robust z-score | outcome |
| --- | --- | --- | --- |
| SDHAF4 (succinate dehydrogenase complex assembly factor 4) | SID160757398 | -0.5 | inactive |
| SDHAF4 (succinate dehydrogenase complex assembly factor 4) | SID160757399 | 3.77 | inactive |
| SDHAF4 (succinate dehydrogenase complex assembly factor 4) | SID160757400 | 0.328 | inactive |
| H4C3 (H4 clustered histone 3) | SID160719909 | 0.271 | inactive |
| H4C3 (H4 clustered histone 3) | SID160719911 | 1.5 | inactive |
| H4C3 (H4 clustered histone 3) | SID160724167 | -0.492 | inactive |
| CYB5R1 (cytochrome b5 reductase 1) | SID160731394 | -0.0269 | inactive |
| CYB5R1 (cytochrome b5 reductase 1) | SID160741248 | -0.78 | inactive |
| CYB5R1 (cytochrome b5 reductase 1) | SID160741250 | 1.07 | inactive |
| ZNF394 (zinc finger protein 394) | SID160751747 | -0.853 | inactive |
| ZNF394 (zinc finger protein 394) | SID160751748 | 2.71 | inactive |
| ZNF394 (zinc finger protein 394) | SID160751749 | 0.107 | inactive |
| DIXDC1 (DIX domain containing 1) | SID160753328 | -0.722 | inactive |
| DIXDC1 (DIX domain containing 1) | SID160753329 | -0.627 | inactive |
| DIXDC1 (DIX domain containing 1) | SID160753330 | 2.72 | inactive |
| AIMP2 | SID160719511 | -1.27 | inactive |
| AIMP2 | SID160719512 | -0.353 | inactive |
| AIMP2 | SID160719513 | 0.654 | inactive |
| SAAL1 (serum amyloid A like 1) | SID160754795 | 0.917 | inactive |
| SAAL1 (serum amyloid A like 1) | SID160754796 | -0.432 | inactive |
| SAAL1 (serum amyloid A like 1) | SID160754797 | 0.00981 | inactive |
| SIM1 (SIM bHLH transcription factor 1) | SID160716743 | -1.05 | inactive |
| SIM1 (SIM bHLH transcription factor 1) | SID160716744 | -0.503 | inactive |
| SIM1 (SIM bHLH transcription factor 1) | SID160716745 | -0.234 | inactive |
| EIF1 (eukaryotic translation initiation factor 1) | SID160726992 | 0.111 | inactive |
| EIF1 (eukaryotic translation initiation factor 1) | SID160727001 | -0.609 | inactive |
| EIF1 (eukaryotic translation initiation factor 1) | SID160727007 | -0.493 | inactive |
| PDP1 (pyruvate dehydrogenase phosphatase catalytic subunit 1) | SID160742043 | 2.38 | inactive |
| PDP1 (pyruvate dehydrogenase phosphatase catalytic subunit 1) | SID160742044 | 0.0402 | inactive |
| PDP1 (pyruvate dehydrogenase phosphatase catalytic subunit 1) | SID160742045 | 2.9 | inactive |
| ASNSD1 (asparagine synthetase domain containing 1) | SID160741856 | -0.0227 | inactive |
| ASNSD1 (asparagine synthetase domain containing 1) | SID160741857 | -0.827 | inactive |
| ASNSD1 (asparagine synthetase domain containing 1) | SID160741858 | 0.832 | inactive |
| MAGEE1 (MAGE family member E1) | SID160746591 | -0.916 | inactive |
| MAGEE1 (MAGE family member E1) | SID160746592 | 0.0328 | inactive |
| MAGEE1 (MAGE family member E1) | SID160746593 | -0.84 | inactive |
| TSPOAP1 (TSPO associated protein 1) | SID160721830 | -0.35 | inactive |
| TSPOAP1 (TSPO associated protein 1) | SID160721831 | -0.18 | inactive |
| TSPOAP1 (TSPO associated protein 1) | SID160721832 | -0.581 | inactive |
| LIPC (lipase C, hepatic type) | SID160776638 | -0.22 | inactive |
| LIPC (lipase C, hepatic type) | SID160776639 | 0.00173 | inactive |
| LIPC (lipase C, hepatic type) | SID160776640 | -0.117 | inactive |
| COX6B1 (cytochrome c oxidase subunit 6B1) | SID160723710 | -0.455 | inactive |
| COX6B1 (cytochrome c oxidase subunit 6B1) | SID160746936 | -0.0934 | inactive |
| COX6B1 (cytochrome c oxidase subunit 6B1) | SID160746947 | 0.0623 | inactive |
| LOC653513 (phosphodiesterase 4D interacting protein-like) | SID160771021 | 0.593 | inactive |
| LOC653513 (phosphodiesterase 4D interacting protein-like) | SID160771022 | 0.38 | inactive |
| LOC653513 (phosphodiesterase 4D interacting protein-like) | SID160771023 | 0.208 | inactive |
| MAPKAPK5 (MAPK activated protein kinase 5) | SID160720316 | -0.157 | inactive |
| MAPKAPK5 (MAPK activated protein kinase 5) | SID160720317 | 0.0441 | inactive |
| MAPKAPK5 (MAPK activated protein kinase 5) | SID160720318 | -0.589 | inactive |
| VPS13B (vacuolar protein sorting 13 homolog B) | SID160759538 | -0.263 | inactive |
| VPS13B (vacuolar protein sorting 13 homolog B) | SID160759539 | -0.352 | inactive |
| VPS13B (vacuolar protein sorting 13 homolog B) | SID160759540 | 2.73 | inactive |
| TCEAL8 (transcription elongation factor A like 8) | SID160735176 | -0.63 | inactive |
| TCEAL8 (transcription elongation factor A like 8) | SID160735177 | 1.06 | inactive |
| TCEAL8 (transcription elongation factor A like 8) | SID160753823 | 1.92 | inactive |
| SLC2A14 | SID160758113 | 0.671 | inactive |
| SLC2A14 | SID160758114 | 0.409 | inactive |
| SLC2A14 | SID160758115 | -0.551 | inactive |
| LRP1 (LDL receptor related protein 1) | SID160776719 | -0.337 | inactive |
| LRP1 (LDL receptor related protein 1) | SID160776720 | 9.72 | active |
| LRP1 (LDL receptor related protein 1) | SID160776722 | 0.221 | inactive |
| C1orf35 (chromosome 1 open reading frame 35) | SID160748736 | -0.029 | inactive |
| C1orf35 (chromosome 1 open reading frame 35) | SID160748737 | 1.63 | inactive |
| C1orf35 (chromosome 1 open reading frame 35) | SID160748738 | -0.561 | inactive |
| METTL25B (methyltransferase like 25B) | SID160740031 | -0.505 | inactive |
| METTL25B (methyltransferase like 25B) | SID160740032 | -1.14 | inactive |
| METTL25B (methyltransferase like 25B) | SID160740033 | -0.458 | inactive |

Targets above whose target name begins with P or p (3):
| gene knocked down | PubChem SID | G2 robust z-score | outcome |
| --- | --- | --- | --- |
| PDP1 (pyruvate dehydrogenase phosphatase catalytic subunit 1) | SID160742043 | 2.38 | inactive |
| PDP1 (pyruvate dehydrogenase phosphatase catalytic subunit 1) | SID160742044 | 0.0402 | inactive |
| PDP1 (pyruvate dehydrogenase phosphatase catalytic subunit 1) | SID160742045 | 2.9 | inactive |
